The record followed here is PMC7819943, “Rice protein-binding microarrays: a tool to detect cis-acting elements near promoter regions in rice”.

The list shows a part of the results.

The experiment concerns the target T1, OsSMF1 (Oryza sativa, UniProt Q6ZLB0 1-436).
T1 sequence: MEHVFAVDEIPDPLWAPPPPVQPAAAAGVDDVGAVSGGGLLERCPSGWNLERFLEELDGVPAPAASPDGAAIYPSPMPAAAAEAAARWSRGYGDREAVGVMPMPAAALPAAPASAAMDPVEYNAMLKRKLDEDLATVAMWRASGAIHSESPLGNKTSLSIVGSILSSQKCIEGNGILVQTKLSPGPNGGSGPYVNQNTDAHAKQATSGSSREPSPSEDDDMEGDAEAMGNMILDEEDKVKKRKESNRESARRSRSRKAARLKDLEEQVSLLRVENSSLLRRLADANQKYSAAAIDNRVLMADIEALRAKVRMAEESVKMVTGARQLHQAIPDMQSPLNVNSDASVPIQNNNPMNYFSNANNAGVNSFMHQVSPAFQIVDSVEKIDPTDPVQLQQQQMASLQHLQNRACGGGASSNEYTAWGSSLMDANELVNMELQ
In words: protein-binding microarray (RPBM); PBS, 2% BSA, 51.3 ng/ul salmon testes DNA, 50 uM zinc acetate, 200 nM TF, 25 C, 1 h; high values mean tight binding. To be noted: protein: recombinant; tags: N-terminal polyhistidine and DsRed monomer fusion (pET32a); chain copies: 2; label: CyDye5-dUTP incorporated in the synthesized complementary strand; 3' TTTTT single-stranded linker to array surface; dsDNA, one strand shown. The method, boiled down:
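Transcription factors, each fused N-terminally to a polyhistidine tag and DsRed, were expressed in E. coli BL21-CodonPlus and purified on Ni–NTA. A custom Agilent array was made double-stranded by primer extension with Cy5-dUTP and blocked with 2% BSA. It was incubated with 200 nM protein in PBS, 2% BSA, salmon testes DNA and 50 µM zinc acetate at 25 °C for 1 h, then washed. The binding signal is per-feature fluorescence intensity (arbitrary units) read on an Axon 4000B scanner.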
On to “ACTGTTTAGCTAGCGCTTTAATCTGTCTGCGTAATTTGTTCGGAGTCACCTAGTGCAG”, for which the binding signal is 3150 fluorescence intensity (a.u.).
Then “TGACAGCCACAAGTATGATGTGATAAAGTGTGGCTATAAACGGAGTCACCTAGTGCAG”, with 65500 fluorescence intensity (a.u.); and “AGTGGGCTATATGGGCAGTCTCAACCCTCCACCTAGGATGCGGAGTCACCTAGTGCAG”, with 3380 fluorescence intensity (a.u.).
With “GACATGGAGACACGTCCAGTTGGAAGTGGAAGCTTGGGACCGGAGTCACCTAGTGCAG” the figure was 23900 fluorescence intensity (a.u.); with “CGCGCGCGCGCCACTGCCACATCGGGCACAGCGCTACCCCCGGAGTCACCTAGTGCAG”, 6730 fluorescence intensity (a.u.).
Then “AGATGTTAGAAATCTAGTCATCTAGATGACACATCTGTACCGGAGTCACCTAGTGCAG”, with 6360 fluorescence intensity (a.u.).
In the case of “AGGAAAAGGAAAACAACTGCTGACCCACATCTCGTTTTATCGGAGTCACCTAGTGCAG”, the binding signal is 4550 fluorescence intensity (a.u.).
Then “ACAAGCAGGGAGGACAGTGGGGCGGCGTGGCAGCAGGGGCCGGAGTCACCTAGTGCAG”, with 4570 fluorescence intensity (a.u.).
Take “GTCCTCTCTCTCGCTCCGATCGCCGTCACTCACCGCCGGGCGGAGTCACCTAGTGCAG”: the binding signal is 4180 fluorescence intensity (a.u.).
Then “GCCATGATGCTTGTTTGTATATATACTGCATATTTCTGTCCGGAGTCACCTAGTGCAG”, with 4610 fluorescence intensity (a.u.).
Then “TTCAGATCTCAGGTGAGAATATCTCCAGAGTTGGTTGATCCGGAGTCACCTAGTGCAG”, with 19100 fluorescence intensity (a.u.).
Then “CCACATGCCCTCTCCGCTCGCCACGTGCACCGCTCCCATCCGGAGTCACCTAGTGCAG”, with 7880 fluorescence intensity (a.u.).
With “CTTACGAGGGCACACGTGGCTTGCCTGCAGGGCTGCAGATCGGAGTCACCTAGTGCAG”, the binding signal was 9040 fluorescence intensity (a.u.).
Regarding “CAATGGCATCTCACCTCTCAGGGTTTGGTGCCCTGTAACTCGGAGTCACCTAGTGCAG”, the binding signal was 4510 fluorescence intensity (a.u.).
Then “GGCGGAGGAAGACGGCCAATACCGCAAGAGGGAGACGTGGCGGAGTCACCTAGTGCAG”, with 18700 fluorescence intensity (a.u.).
Then “TGAATTGGAGCGACCGTGAGAGGTAGCATAGAATGTCATGCGGAGTCACCTAGTGCAG”, with 3270 fluorescence intensity (a.u.).
With “GCGGGTAGGGCTCCACGTCACCGATCCAGCTCCTCCTTGCCGGAGTCACCTAGTGCAG” the figure was 35500 fluorescence intensity (a.u.); with “CTGACACCTGGGCCCCACCCGCAGTGACACGTCGACGCGGCGGAGTCACCTAGTGCAG”, 17800 fluorescence intensity (a.u.).
On to “CCGGGAAGGGAGAGGGAGAGAGGAGTCGGGGCGAGAAGTGCGGAGTCACCTAGTGCAG”, for which the binding signal is 3500 fluorescence intensity (a.u.).
As for “AATAACATATCCATTTATATTAACTACGAACAAATATGCACGGAGTCACCTAGTGCAG”, the binding signal was 16300 fluorescence intensity (a.u.).
With “ATCTCGCGCCCGCGCGCCAGGAGGCCAAGTCGCGCACATGCGGAGTCACCTAGTGCAG” the figure was 3150 fluorescence intensity (a.u.); with “TCCCATCCAAGGTAATCTACACATTTTCACTCAGTGAGATCGGAGTCACCTAGTGCAG”, 3180 fluorescence intensity (a.u.); with “TGTTTTGCATATGCAAGTCTACACGTCAGATGTGATGCCACGGAGTCACCTAGTGCAG”, 11400 fluorescence intensity (a.u.).
Then “AGACGAAGGACACGCGGAGGCCGCGCGAGGCCAGGCGGCCCGGAGTCACCTAGTGCAG”, with 3240 fluorescence intensity (a.u.).
With “CCCTCTCCTCCGCAGCGCGCCACAGGCTACAAGAGGTGAGCGGAGTCACCTAGTGCAG” the figure was 24200 fluorescence intensity (a.u.); with “CGAAGGTGCCAGGCCACGCGGGCGATTGCGTCTACCTCAACGGAGTCACCTAGTGCAG”, 3740 fluorescence intensity (a.u.).
Take “CCAAAACTTTCTCCTCACACGCGTCAAGTGGGCCCCACCTCGGAGTCACCTAGTGCAG”: the binding signal was 4020 fluorescence intensity (a.u.).
With “GTAAACCTGCTCGGTCCACAGCACAGGCGCACAACAGAGTCGGAGTCACCTAGTGCAG” the figure was 3370 fluorescence intensity (a.u.); with “AAATATGTGGAGATGAGGTTAACAGCACCTGGAGGCTTGTCGGAGTCACCTAGTGCAG”, 3250 fluorescence intensity (a.u.).
With “TTCCCGCCACCAACGCCTCGCGTCGCTGACGAAGTTGCTCCGGAGTCACCTAGTGCAG” the figure was 3980 fluorescence intensity (a.u.); with “TGTTTGTCGTGACTCAGCTTAGTTGTTGCTGTTGTTGAGCCGGAGTCACCTAGTGCAG”, 17300 fluorescence intensity (a.u.).
With “GGCCTTGCCTATATAAAGCCGACACGGACGCCACGCCACCCGGAGTCACCTAGTGCAG”, the binding signal is 7200 fluorescence intensity (a.u.).
With “TTGTTTACTGGTCCGTCCTAGCTGTGAGCCCGTGCGGCCACGGAGTCACCTAGTGCAG” the figure was 3160 fluorescence intensity (a.u.).
Then “AGCCAGAGAGTGAGGCCACGGCTATCTATACACTATAGCTCGGAGTCACCTAGTGCAG”, with 5970 fluorescence intensity (a.u.).
“GATCCAAATGCGTCTATTGTCCTTGACGCGGCAAGAGGATCGGAGTCACCTAGTGCAG”: the binding signal is 3750 fluorescence intensity (a.u.).
With “CATAATATAAGACATAATCAAACTTAGCACTGTCTTCAAACGGAGTCACCTAGTGCAG”, the binding signal was 3150 fluorescence intensity (a.u.).
In the case of “TGTGTGATTGTGACAAATCAACTGTACATTCAAATCATCACGGAGTCACCTAGTGCAG”, the binding signal is 3650 fluorescence intensity (a.u.).
With “TACTGCCACGTAGGCGCCACGTCAGCGAAACCGCCCTCCACGGAGTCACCTAGTGCAG” the figure was 58100 fluorescence intensity (a.u.).
Then “TTGTCAAGTGATAAGATGGTATGACCGTATCGTTTTGTCGCGGAGTCACCTAGTGCAG”, with 3420 fluorescence intensity (a.u.); and “CTGAAGTGAGGGAGGGGAGGAGGTGGTGGTGGTGGGGAAGCGGAGTCACCTAGTGCAG”, with 4190 fluorescence intensity (a.u.); and “TCGCCATCATCATGCCTAACCAAGTTTAGGCCCTAATCAACGGAGTCACCTAGTGCAG”, with 3760 fluorescence intensity (a.u.).
In the case of “AGCTCAAGCACCACATCTCTTCTCCAGTGACGTCAGAGGACGGAGTCACCTAGTGCAG”, the binding signal is 8860 fluorescence intensity (a.u.).
